# The supplement of paper PMC4604168 (melanoma cell lines)
# This is one part of the list. Many values rest on one well or one pass, so single values are uncertain.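 Imaging used 1,536-well plates; nuclei positive for cleaved PARP by antibody were divided by total DNA-stained nuclei to yield the apoptosis fraction. Doses for screening kept most cells viable, and cell lines differ markedly in resting and induced cleaved-PARP levels.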
# Test system: MeWo
# Test: cleaved PARP positive nuclei fraction relative to DMSO control; melanoma cells; higher = more apoptosis
# Conditions: library dose: low library concentration; 72 h
row,Structure (SMILES),cleaved PARP positive nuclei fraction
1,"O=C1NC(=O)/C(=C/c2ccc(-c3ccc(F)cc3O)o2)S1 + O=C(Oc1ccc([N+](=O)[O-])cc1)N1CCC(C(O)(c2ccc3c(c2)OCO3)c2ccc3c(c2)OCO3)CC1 [JZL184] (first compound 1 µM, partner dose 1 µM)",118%
2,"CN(C)S(=O)(=O)c1ccc2c(c1)/C(=C/c1cc3c([nH]1)CCCC3)C(=O)N2 + Cc1cc(SCc2sc(-c3ccc(C(F)(F)F)c(F)c3)nc2C)ccc1OCC(=O)O [GW0742] (first compound 0.4 µM, partner dose 2 µM)",110%
3,"O=C(Oc1ccc([N+](=O)[O-])cc1)N1CCC(C(O)(c2ccc3c(c2)OCO3)c2ccc3c(c2)OCO3)CC1 + Cn1cc(/C=C2\C(=O)Nc3cccnc32)c2ccccc21 [GW441756] (first compound 1 µM, partner dose 0.4 µM)",105%
4,"CO[C@H]1C[C@@H]2CC[C@@H](C)[C@@](O)(O2)C(=O)C(=O)N2CCCC[C@H]2C(=O)O[C@H]([C@H](C)C[C@@H]2CC[C@@H](OCCO)[C@H](OC)C2)CC(=O)[C@H](C)/C=C(\C)[C@@H](O)[C@@H](OC)C(=O)[C@H](C)C[C@H](C)/C=C/C=C/C=C/1C [everolimus] + Cc1cc(SCc2sc(-c3ccc(C(F)(F)F)c(F)c3)nc2C)ccc1OCC(=O)O [GW0742] (first compound 0.02 µM, partner dose 2 µM)",53.6%
5,"C[C@]12O[C@H](C[C@]1(O)CO)n1c3ccccc3c3c4c(c5c6ccccc6n2c5c31)CNC4=O [Lestaurtinib] + CO[C@@H]1[C@H](N(C)C(=O)c2ccccc2)C[C@H]2O[C@]1(C)n1c3ccccc3c3c4c(c5c6ccccc6n2c5c31)C(=O)NC4 [Midostaurin] (first compound 0.004 µM, partner dose 0.08 µM)",99.6%
6,"C[C@]12O[C@H](C[C@]1(O)CO)n1c3ccccc3c3c4c(c5c6ccccc6n2c5c31)CNC4=O [Lestaurtinib] + NC(=O)Nc1cc(-c2cccc(F)c2)sc1C(=O)N[C@H]1CCCNC1 [AZD7762] (first compound 0.004 µM, partner dose 0.02 µM)",78.4%
7,"C[C@]12O[C@H](C[C@]1(O)CO)n1c3ccccc3c3c4c(c5c6ccccc6n2c5c31)CNC4=O [Lestaurtinib] + CN(NC(=O)CC(=O)NN(C)C(=S)c1ccccc1)C(=S)c1ccccc1 [STA4783] (first compound 0.004 µM, partner dose 0.006 µM)",108%
8,"N#Cc1c(O)c2c(-c3ccc(-c4ccccc4O)cc3)csc2[nH]c1=O + Cc1cc(SCc2sc(-c3ccc(C(F)(F)F)c(F)c3)nc2C)ccc1OCC(=O)O [GW0742] (first compound 2 µM, partner dose 2 µM)",111%
9,"C[C@]12O[C@H](C[C@]1(O)CO)n1c3ccccc3c3c4c(c5c6ccccc6n2c5c31)CNC4=O [Lestaurtinib] + O=C(O)C(=O)Nc1sc2c(c1C(=O)O)CCNC2 [TCS401] (first compound 0.004 µM, partner dose 1.66667 µM)",41.7%

# Test system: RPMI7951
# Test: as above
# Conditions: library dose: low library concentration; 72 h
row,Structure (SMILES),cleaved PARP positive nuclei fraction
1,"Oc1cc(-c2nc(-c3ccccc3)[nH]c2-c2ccncc2)ccc1Cl + C/C(O)=C(\C#N)C(=O)Nc1cc(Br)ccc1Br [LFM-A13] (first compound 0.2 µM, partner dose 2 µM)",85.2%
2,"C[As](C)SC[C@H](NC(=O)CC[C@H](N)C(=O)O)C(=O)NCC(=O)O [Darinaparsin] + COc1ccc2c(c1)CCC1C2CCC2(C)C(NCCCCCCN3C(=O)C=CC3=O)CCC12 [U73122] (first compound 0.4 µM, partner dose 0.4 µM)",72.6%
3,"CCc1ccc(CCOc2ccc(CC3SC(=O)NC3=O)cc2)nc1 (stereo not given) [pioglitazone] + O=C(Oc1ccc([N+](=O)[O-])cc1)N1CCC(C(O)(c2ccc3c(c2)OCO3)c2ccc3c(c2)OCO3)CC1 [JZL184] (first compound 2 µM, partner dose 1 µM)",83%
4,"CC1(C)NC(=O)N(c2ccc([N+](=O)[O-])c(C(F)(F)F)c2)C1=O [nilutamide] + C/C(O)=C(\C#N)C(=O)Nc1cc(Br)ccc1Br [LFM-A13] (first compound 1 µM, partner dose 2 µM)",81.3%
5,"C[C@]12O[C@H](C[C@]1(O)CO)n1c3ccccc3c3c4c(c5c6ccccc6n2c5c31)CNC4=O [Lestaurtinib] + O=C(Oc1ccc([N+](=O)[O-])cc1)N1CCC(C(O)(c2ccc3c(c2)OCO3)c2ccc3c(c2)OCO3)CC1 [JZL184] (first compound 0.004 µM, partner dose 1 µM)",45.1%
6,"Oc1cc(-c2nc(-c3ccccc3)[nH]c2-c2ccncc2)ccc1Cl + O=C(Oc1ccc([N+](=O)[O-])cc1)N1CCC(C(O)(c2ccc3c(c2)OCO3)c2ccc3c(c2)OCO3)CC1 [JZL184] (first compound 0.2 µM, partner dose 1 µM)",209%
7,"Cc1cc(SCc2sc(-c3ccc(C(F)(F)F)c(F)c3)nc2C)ccc1OCC(=O)O + c1cc(-c2cnn3cc(-c4ccc(OCCN5CCCCC5)cc4)cnc23)ccn1 [Dorsomorphin] (first compound 2 µM, partner dose 0.4 µM)",178%
8,"C[C@]12O[C@H](C[C@]1(O)CO)n1c3ccccc3c3c4c(c5c6ccccc6n2c5c31)CNC4=O [Lestaurtinib] + C[C@@H]1CCN(C(=O)CC#N)C[C@@H]1N(C)c1ncnc2[nH]ccc12 [CP690550] (first compound 0.004 µM, partner dose 1 µM)",110%
9,"O=S(=O)(c1ccccc1)N(CC(F)(F)F)c1ccc(C(O)(C(F)(F)F)C(F)(F)F)cc1 + O=C(Oc1ccc([N+](=O)[O-])cc1)N1CCC(C(O)(c2ccc3c(c2)OCO3)c2ccc3c(c2)OCO3)CC1 [JZL184] (first compound 1.4 µM, partner dose 1 µM)",78.7%
10,"CCN(CC)CCCCNc1ncc2cc(-c3cc(OC)cc(OC)c3)c(NC(=O)NC(C)(C)C)nc2n1 + C/C(O)=C(\C#N)C(=O)Nc1cc(Br)ccc1Br [LFM-A13] (first compound 0.1 µM, partner dose 2 µM)",48%
11,"CC(C)(C)c1cnc(CSc2cnc(NC(=O)C3CCNCC3)s2)o1 + O=C(Oc1ccc([N+](=O)[O-])cc1)N1CCC(C(O)(c2ccc3c(c2)OCO3)c2ccc3c(c2)OCO3)CC1 [JZL184] (first compound 0.01 µM, partner dose 1 µM)",42.4%
12,"C[As](C)SC[C@H](NC(=O)CC[C@H](N)C(=O)O)C(=O)NCC(=O)O [Darinaparsin] + O=C(O)C(=O)Nc1sc2c(c1C(=O)O)CCNC2 [TCS401] (first compound 0.4 µM, partner dose 1.66667 µM)",128%
13,"CCN(CC)CCCCNc1ncc2cc(-c3cc(OC)cc(OC)c3)c(NC(=O)NC(C)(C)C)nc2n1 + O=C(Oc1ccc([N+](=O)[O-])cc1)N1CCC(C(O)(c2ccc3c(c2)OCO3)c2ccc3c(c2)OCO3)CC1 [JZL184] (first compound 0.1 µM, partner dose 1 µM)",73%
14,"C[As](C)SC[C@H](NC(=O)CC[C@H](N)C(=O)O)C(=O)NCC(=O)O [Darinaparsin] + Cc1cc(SCc2sc(-c3ccc(C(F)(F)F)c(F)c3)nc2C)ccc1OCC(=O)O [GW0742] (first compound 0.4 µM, partner dose 2 µM)",39.2%
15,"CCc1ccc(CCOc2ccc(CC3SC(=O)NC3=O)cc2)nc1 (stereo not given) [pioglitazone] + C/C(O)=C(\C#N)C(=O)Nc1cc(Br)ccc1Br [LFM-A13] (first compound 2 µM, partner dose 2 µM)",89.6%
16,"CO[C@@H]1[C@H](N(C)C(=O)c2ccccc2)C[C@H]2O[C@]1(C)n1c3ccccc3c3c4c(c5c6ccccc6n2c5c31)C(=O)NC4 [Midostaurin] + C/C(O)=C(\C#N)C(=O)Nc1cc(Br)ccc1Br [LFM-A13] (first compound 0.08 µM, partner dose 2 µM)",106%
17,"c1cc(-c2cnn3cc(-c4ccc(OCCN5CCCCC5)cc4)cnc23)ccn1 [Dorsomorphin] + O=C(Oc1ccc([N+](=O)[O-])cc1)N1CCC(C(O)(c2ccc3c(c2)OCO3)c2ccc3c(c2)OCO3)CC1 [JZL184] (first compound 0.4 µM, partner dose 1 µM)",87%
18,"Cc1cc(SCc2sc(-c3ccc(C(F)(F)F)c(F)c3)nc2C)ccc1OCC(=O)O + Cn1cc(/C=C2\C(=O)Nc3cccnc32)c2ccccc21 [GW441756] (first compound 2 µM, partner dose 0.4 µM)",39.2%
19,"C[C@]12O[C@H](C[C@]1(O)CO)n1c3ccccc3c3c4c(c5c6ccccc6n2c5c31)CNC4=O [Lestaurtinib] + C/C(O)=C(\C#N)C(=O)Nc1cc(Br)ccc1Br [LFM-A13] (first compound 0.004 µM, partner dose 2 µM)",35.1%
20,"C[As](C)SC[C@H](NC(=O)CC[C@H](N)C(=O)O)C(=O)NCC(=O)O [Darinaparsin] + COc1cc2ncnc(Nc3ccc(Oc4ccccc4)cc3)c2cc1OC [SrcI1] (first compound 0.4 µM, partner dose 2 µM)",109%
21,"Cn1nnc2c(C(N)=O)ncn2c1=O [temozolomide] + O=C(Oc1ccc([N+](=O)[O-])cc1)N1CCC(C(O)(c2ccc3c(c2)OCO3)c2ccc3c(c2)OCO3)CC1 [JZL184] (first compound 2 µM, partner dose 1 µM)",98%

# Fetched one by one from the list above:
row,Structure (SMILES),cleaved PARP positive nuclei fraction
5,"C[C@]12O[C@H](C[C@]1(O)CO)n1c3ccccc3c3c4c(c5c6ccccc6n2c5c31)CNC4=O [Lestaurtinib] + O=C(Oc1ccc([N+](=O)[O-])cc1)N1CCC(C(O)(c2ccc3c(c2)OCO3)c2ccc3c(c2)OCO3)CC1 [JZL184] (first compound 0.004 µM, partner dose 1 µM)",45.1%
16,"CO[C@@H]1[C@H](N(C)C(=O)c2ccccc2)C[C@H]2O[C@]1(C)n1c3ccccc3c3c4c(c5c6ccccc6n2c5c31)C(=O)NC4 [Midostaurin] + C/C(O)=C(\C#N)C(=O)Nc1cc(Br)ccc1Br [LFM-A13] (first compound 0.08 µM, partner dose 2 µM)",106%
